No constants are given. Whether binding was seen depends on the method and setting. Some binding calls cover weakened binding; strength is not graded here.
What was measured:
Test in all cases: two-hybrid; GAL4(DB) fusion and GAL4(AD) fusion cotransformed into the wild-type tester strain GGY1::171; X-Gal colony colour on SSX plates, 30°C; pairs said to be unaffected were also tested in upf1Δ, pat1Δ, scd6Δ, edc3Δ or dcp2-N245 derivatives
[1] = target: T1, Dcp2 fragment N101-300 (S. cerevisiae) (UniProt P53550)
T1 sequence: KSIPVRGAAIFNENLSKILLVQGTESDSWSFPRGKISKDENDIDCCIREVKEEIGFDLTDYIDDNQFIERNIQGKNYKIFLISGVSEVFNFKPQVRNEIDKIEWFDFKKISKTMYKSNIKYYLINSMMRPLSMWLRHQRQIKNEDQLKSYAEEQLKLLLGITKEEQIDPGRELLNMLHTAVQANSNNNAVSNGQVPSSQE

[2] = target: T2, Dcp2 fragment ND415 (S. cerevisiae) (UniProt P53550)
T2 sequence: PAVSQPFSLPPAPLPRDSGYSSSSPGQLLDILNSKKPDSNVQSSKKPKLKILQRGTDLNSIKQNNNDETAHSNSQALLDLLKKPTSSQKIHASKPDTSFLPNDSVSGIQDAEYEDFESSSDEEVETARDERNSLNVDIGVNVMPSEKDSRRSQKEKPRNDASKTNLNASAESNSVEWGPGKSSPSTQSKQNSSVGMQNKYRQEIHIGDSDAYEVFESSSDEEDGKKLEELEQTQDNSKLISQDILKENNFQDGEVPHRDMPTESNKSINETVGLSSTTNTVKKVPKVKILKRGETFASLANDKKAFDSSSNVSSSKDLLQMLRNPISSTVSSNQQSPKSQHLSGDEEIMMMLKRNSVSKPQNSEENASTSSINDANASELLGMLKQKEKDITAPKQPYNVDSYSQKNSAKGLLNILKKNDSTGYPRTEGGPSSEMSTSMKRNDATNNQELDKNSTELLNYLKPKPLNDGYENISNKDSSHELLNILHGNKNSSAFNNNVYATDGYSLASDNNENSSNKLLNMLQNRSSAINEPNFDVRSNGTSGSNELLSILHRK

[3] = target: T3, Dcp2, wild-type full length (S. cerevisiae) (UniProt P53550)
T3 sequence: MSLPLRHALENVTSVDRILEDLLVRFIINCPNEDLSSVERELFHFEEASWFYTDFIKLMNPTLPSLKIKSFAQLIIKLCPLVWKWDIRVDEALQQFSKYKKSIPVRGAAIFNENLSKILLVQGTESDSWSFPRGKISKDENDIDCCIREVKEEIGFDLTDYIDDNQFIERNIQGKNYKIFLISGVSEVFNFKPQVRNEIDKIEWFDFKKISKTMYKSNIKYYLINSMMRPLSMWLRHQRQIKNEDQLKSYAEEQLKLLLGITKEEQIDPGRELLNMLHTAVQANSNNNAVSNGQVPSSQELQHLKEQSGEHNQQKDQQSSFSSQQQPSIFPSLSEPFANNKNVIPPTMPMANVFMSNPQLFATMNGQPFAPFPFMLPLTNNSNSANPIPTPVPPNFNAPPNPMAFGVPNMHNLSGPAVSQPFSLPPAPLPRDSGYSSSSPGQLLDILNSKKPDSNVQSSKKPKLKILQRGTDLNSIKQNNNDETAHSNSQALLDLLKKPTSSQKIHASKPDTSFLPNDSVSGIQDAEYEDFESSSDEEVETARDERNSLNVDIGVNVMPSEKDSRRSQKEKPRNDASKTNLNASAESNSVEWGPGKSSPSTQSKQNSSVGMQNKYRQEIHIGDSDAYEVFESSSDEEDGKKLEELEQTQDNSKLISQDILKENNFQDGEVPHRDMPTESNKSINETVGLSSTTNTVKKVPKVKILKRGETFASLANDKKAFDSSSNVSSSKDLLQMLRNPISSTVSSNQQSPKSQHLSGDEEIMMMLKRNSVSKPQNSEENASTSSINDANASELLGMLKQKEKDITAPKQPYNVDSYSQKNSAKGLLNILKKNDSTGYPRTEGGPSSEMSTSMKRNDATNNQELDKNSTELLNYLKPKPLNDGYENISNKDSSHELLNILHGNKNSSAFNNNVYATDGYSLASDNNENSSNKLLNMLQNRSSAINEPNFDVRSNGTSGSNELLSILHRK

[4] = target: T4, Dcp2-ND244 (726-amino acid C-terminal fragment) (S. cerevisiae) (UniProt P53550)
T4 sequence: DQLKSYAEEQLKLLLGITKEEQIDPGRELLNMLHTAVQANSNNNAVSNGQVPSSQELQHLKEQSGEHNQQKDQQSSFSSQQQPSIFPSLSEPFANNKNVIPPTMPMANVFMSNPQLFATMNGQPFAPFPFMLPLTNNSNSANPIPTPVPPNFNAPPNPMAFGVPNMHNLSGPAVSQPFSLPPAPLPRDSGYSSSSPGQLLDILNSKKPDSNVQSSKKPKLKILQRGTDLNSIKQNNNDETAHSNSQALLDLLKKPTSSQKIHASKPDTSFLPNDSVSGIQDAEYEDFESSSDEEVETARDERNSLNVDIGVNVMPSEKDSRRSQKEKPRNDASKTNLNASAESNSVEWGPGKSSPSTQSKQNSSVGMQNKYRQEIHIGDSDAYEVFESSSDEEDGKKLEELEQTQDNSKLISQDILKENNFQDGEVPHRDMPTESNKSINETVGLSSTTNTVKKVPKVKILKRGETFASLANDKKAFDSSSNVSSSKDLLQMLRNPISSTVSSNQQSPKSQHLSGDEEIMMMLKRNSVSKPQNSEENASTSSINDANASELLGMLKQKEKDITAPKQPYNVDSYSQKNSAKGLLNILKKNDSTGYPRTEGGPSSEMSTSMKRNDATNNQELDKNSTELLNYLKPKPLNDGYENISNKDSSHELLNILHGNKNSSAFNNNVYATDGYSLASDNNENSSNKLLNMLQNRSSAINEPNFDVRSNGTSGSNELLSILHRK

- binding [1]: binds
- binding [2]: binds weakly
- binding [3]: binds
- binding [4]: binds
B1: Scd6 (protein, UniProt P45978 1-349)
chain: MSQYIGKTISLISVTDNRYVGLLEDIDSEKGTVTLKEVRCFGTEGRKNWGPEEIYPNPTVYNSVKFNGSEVKDLSILDANINDIQPVVPQMMPPASQFPPQQAQSPPQAQAQAHVQTNPQVPKPESNVPAAVAGYGVYTPTSTETATASMNDKSTPQDTNVNSQSRERGKNGENEPKYQRNKNRSSNRPPQSNRNFKVDIPNEDFDFQSNNAKFTKGDSTDVEKEKELESAVHKQDESDEQFYNKKSSFFDTISTSTETNTNMRWQEEKMLNVDTFGQASARPRFHSRGLGRGRGNYRGNRGNRGRGGQRGNYQNRNNYQNDSGAYQNQNDSYSRPANQFSQPPSNVEF

From PMC9170289
